Results taken from US10261090B2, “Glutathione-detecting fluorescent probe” (THE UNIVERSITY OF TOKYO, priority 2014, dated 2019).

Assay: Assay by fluorescent probe using FRET
Assay type: physicochemical
Settings: glutathione addition 1 μM-10 mM; 0.5 μM probe, pH 7.4, excitation 550 nm

Cc1cc(C(=O)NC2CCC(NC(=O)c3ccc(-c4c5ccc(=[N+](C)C)cc-5oc5cc(N(C)C)ccc45)c(C(=O)[O-])c3)CC2)ccc1C1=C2C=CC(=N)C=C2[Si](C)(C)c2cc(N)ccc21 (centres unmarked) [Compound 8, 2Me SiR600-TMR]
fluorescence intensity of the 584 nm peak (donor): increase in the fluorescence intensity of the 584 nm peak | fluorescence intensity of the 615 nm peak (acceptor): decrease in the fluorescence intensity of the 615 nm peak
